Measured values reported in the supplement of paper PMC11348887.
The list shows a part of the results. Most values lie at the level of the controls, where differences are scatter.

test system: hPSC-derived cortical neurons (WA09); assay: nucleus roundness z-score vs screen plate; higher = rounder nuclei (more mature); conditions: 5 µM; treatment: days 7-14 after plating, readout day 21

| Structure (SMILES) | nucleus roundness z-score |
| --- | --- |
| CC(C)C[C@H](NC(=O)CNC(=O)c1cc(Cl)ccc1Cl)B1OC(=O)C(CC(=O)O)(CC(=O)O)O1 | -5.23 |
| CC(C)(C)[N+]([O-])=Cc1ccc(S(=O)(=O)O)cc1S(=O)(=O)O | 0.807 |
| CNC(=O)c1ccccc1Nc1cc(Nc2ccc(N3CCOCC3)cc2OC)ncc1C(F)(F)F | -2.16 |
| Nc1ccc(S(N)(=O)=O)cc1 [Sulfanilamide] | -0.000484 |
| CC(=O)OCOC(=O)CN(CC(=O)OCOC(C)=O)c1ccccc1OCCOc1ccccc1N(CC(=O)OCOC(C)=O)CC(=O)OCOC(C)=O | 0.625 |

test system: hPSC-derived cortical neurons (WA09); assay: KCl-induced FOS+/EGR-1+ double-positive nuclei fraction z-score (KCl minus unstimulated); higher = stronger activity-induced IEG response; conditions: 5 µM; treatment: days 7-14 after plating, readout day 21

| Structure (SMILES) | KCl-induced FOS+/EGR-1+ double-positive nuclei fraction z-score |
| --- | --- |
| CC(=O)O[C@]1(C(C)=O)CC[C@H]2[C@@H]3C=C(Cl)C4=CC(=O)[C@@H]5C[C@@H]5[C@]4(C)[C@H]3CC[C@@]21C [Cyproterone Acetate] | -0.852 |
| C[C@H](CCC(=O)NCCS(=O)(=O)O)[C@H]1CC[C@H]2[C@@H]3[C@@H](O)C[C@@H]4C[C@H](O)CC[C@]4(C)[C@H]3CC[C@]12C [Sodium Tauroursodeoxycholate (TUDC)] | 1.18 |
| CNC(=O)c1cc(Oc2ccc(NC(=O)Nc3ccc(Cl)c(C(F)(F)F)c3)c(F)c2)ccn1 [Regorafenib (BAY 73-4506)] | -0.182 |
| NC(=O)N1c2ccccc2CC(=O)c2ccccc21 [Oxcarbazepine] | -0.153 |
| CN1CCN(c2c(F)cc3c(=O)c(C(=O)O)cn4c3c2OCN4C)CC1 [Marbofloxacin] | -0.831 |
| O=C(O)CCc1nc(-c2ccccc2)c(-c2ccccc2)o1 [Oxaprozin] | -0.372 |
| CNC(=O)c1cccc(-c2ccc3c(N4CCOC[C@@H]4C)nc(N4CCOC[C@@H]4C)nc3n2)c1 | -0.506 |

Three compounds out of the list, ordered by count of non-hydrogen atoms, rising.

| Structure (SMILES) | KCl-induced FOS+/EGR-1+ double-positive nuclei fraction z-score |
| --- | --- |
| O=C(O)CCc1nc(-c2ccccc2)c(-c2ccccc2)o1 [Oxaprozin] | -0.372 |
| CC(=O)O[C@]1(C(C)=O)CC[C@H]2[C@@H]3C=C(Cl)C4=CC(=O)[C@@H]5C[C@@H]5[C@]4(C)[C@H]3CC[C@@]21C [Cyproterone Acetate] | -0.852 |
| CNC(=O)c1cc(Oc2ccc(NC(=O)Nc3ccc(Cl)c(C(F)(F)F)c3)c(F)c2)ccn1 [Regorafenib (BAY 73-4506)] | -0.182 |
